Assay results as given in article PMC12040169 (PLOS Biology, 2025).
The list shows a part of the results.

tested on: T1, CTL2-GFP (C. trachomatis L2/434/Bu, GFP-expressing); parameters: species or system HeLa; Intracellular C. trachomatis growth in HeLa cells, bulk GFP fluorescence relative to DMSO; details: bulk GFP, single well; 28.5 h, 10 µM; inhibitor
T1 construct: L2/434/Bu, GFP-expressing

Row | Compound | % of control remaining [%]
1 | Cc1ccc(S(=O)(=O)NCC(Oc2ccc([N+](=O)[O-])cc2)c2ccccc2)cc1 (stereo not drawn) [CBK262208] | 94.8837
2 | CC(C)c1nc(CC(=O)NCCS(=O)(=O)N2CCc3ccccc32)cs1 [CBK305630] | 117.865
3 | O=C(NCCn1cc[nH]c1=O)c1cnc(-c2ccc(Cl)cc2)c(-c2ccc(O)cc2)c1 [CBK036766] | 153.44
4 | CNc1nc(C)c(C(=O)N2CCCC(COc3ccc(F)cc3)C2)s1 (stereo not drawn) [CBK307234] | 101.852
5 | Cc1ccc(C(=O)Nc2ccccc2)cc1S(=O)(=O)N1CCN(C)CC1 [CBK270076] | 127.173
6 | CN(C)CCN(C)C(=O)c1ccc(-c2ccccc2)nc1N(C)C [CBK106070] | 137.216
7 | CCCS(=O)(=O)NC1CCN(c2nc(C(F)(F)F)nc3[nH]cnc23)CC1 [CBK304587] | 114.37
8 | O=S(=O)(c1ccc(Br)s1)N1CCC(Cc2ccccc2)CC1 [CBK043580] | 141.094
9 | COc1ccc(S(=O)(=O)N2CCCC(C(=O)Nc3ccc(C(N)=O)cc3)C2)cc1C (stereo not drawn) [CBK269163] | 146.478
10 | CCNC(=O)NC[C@@H]1C=C(C)[C@H](CC(=O)N2CCOCC2)C[C@H]1C(C)C [CBK289051] | 120.316
11 | O=c1c2ccccc2nc2n1CCN(Cc1ccc(F)c(F)c1)CC2 [CBK284816] | 105.065
12 | COc1ccc([C@@]23CC[C@@H](NC(=O)Nc4cccc(SC)c4)C[C@@H]2N(C)CC3)cc1OC [CBK036459T] | 103.11
13 | CC(C)[C@H](CO)n1c(=O)[nH]c2ncc(-c3cccc(/C=C/C(=O)O)c3)nc21 [CBK065051] | 118.568
14 | Cn1c(N2CC[C@H](O)C2)nc2cc(C(=O)NCC3CC3)ccc21 [CBK307164] | 122.35
15 | COc1ccc(C(=O)O)cc1NC(=S)NC(=O)c1ccc(-c2cc(Cl)ccc2Cl)o1 [CBK265074] | 100
16 | CCCc1cc(=O)n2c(n1)SCOC2 [CBK010967] | 117.487
17 | CCc1cc(CNC(=O)C2CC3C=CC2C32CC2)on1 (stereo not drawn) [CBK282071] | 132.146
18 | COc1ccc(C2=C(CC(=O)O)C(=O)CC2)cc1 [CBK264812] | 123.488
19 | CC(CCCC(C)(C)O)Nc1cncc(-c2ccccc2CO)n1 (stereo not drawn) [CBK065529] | 143.338
20 | Cc1cc(COC(=O)N2CCSCC2)cc(C)n1 [CBK200153] | 145.263
21 | O=C(Cc1ccccc1F)N1CCCC(c2cnccn2)C1 (stereo not drawn) [CBK284601] | 149.7
22 | CCN1CCc2nc(NC(=O)c3ccc(Cl)cc3)sc2C1 [CBK287644] | 123.766
23 | CC(=O)N1CCN(c2nnc(-c3ccccc3)o2)CC1 [CBK170332] | 148.657
24 | Cc1nn(CC(=O)N2CCCCC2)c(=O)c2cc3ccsc3n12 [CBK284078] | 149.309
25 | OCCc1ccc(Nc2cc(-c3cccnc3)ncn2)cc1 [CBK090768] | 134.573
26 | N#C/C(=C\c1cn(-c2ccccc2)nc1-c1cccc(S(=O)(=O)N2CCOCC2)c1)c1nc2ccccc2c(=O)[nH]1 [CBK266357] | 135.397

By substructure, the entries above with a Cl atom
Row | Compound | % of control remaining [%]
3 | O=C(NCCn1cc[nH]c1=O)c1cnc(-c2ccc(Cl)cc2)c(-c2ccc(O)cc2)c1 [CBK036766] | 153.44
15 | COc1ccc(C(=O)O)cc1NC(=S)NC(=O)c1ccc(-c2cc(Cl)ccc2Cl)o1 [CBK265074] | 100
22 | CCN1CCc2nc(NC(=O)c3ccc(Cl)cc3)sc2C1 [CBK287644] | 123.766

Later entries

Row | Compound | % of control remaining [%]
27 | CCCCNS(=O)(=O)c1ccc(OCC(=O)O)cc1 [CBK268550] | 97.0712
28 | COc1ccc(C2CCCN2S(=O)(=O)c2ccccc2[N+](=O)[O-])cc1OC (stereo not drawn) [CBK295309] | 96.2523
29 | CN(C)CCN(C)c1cncc(-c2cccc3ccccc23)n1 [CBK065709] | 205.942
30 | CSc1sc(C(=O)CC#N)c2c1C=CCC2 [CBK006004] | 152.479
31 | CC(=O)Nc1ccc(-c2nc3cnccc3o2)cc1 [CBK287975] | 135.536
32 | O=C(Cn1c(C2CCNCC2)cc2cccnc21)NC1CCCC1 [CBK285002] | 123.349
33 | CC1Oc2ccccc2OC1C(=O)Nc1nnc(Cc2ccccc2)s1 (stereo not drawn) [CBK295634] | 131.603
34 | CCOC(=O)CC(=O)CSc1nc(C)cc(-c2cccs2)c1C#N [CBK267446] | 146.149
35 | COc1ccc(OCCN2CCC3(CC2)CN(S(C)(=O)=O)c2ccccc23)cc1 [CBK126681] | 67.6527
36 | COC(=O)c1sc2cc(NC(=S)NCc3ccc(S(N)(=O)=O)cc3)ccc2c1Cl [CBK267094] | 179.709
37 | CC(C)(C)c1ccc(COn2c(=O)c(-c3ccccc3Cl)[n+]([O-])c3ccccc32)cc1 [CBK267494] | 113.941
38 | Nc1nnc(SCCC(=O)N2CCN(c3ccc(F)cc3)CC2)s1 [CBK304597] | 114.297
39 | O=S(=O)(NCc1ccc(C(F)(F)F)c(F)c1)c1cccc2nsnc12 [CBK062113] | 144.56
40 | O=C(c1ccc(OC(F)F)cc1)N1CCCc2cc(S(=O)(=O)N3CCCCC3)ccc21 [CBK295621] | 116.876
41 | Cc1ncncc1C(=O)N1CCCCC1CCc1ccccc1 (stereo not drawn) [CBK282264] | 114.618
42 | CCc1nc2sc(C(N)=O)c(N)c2c2c1CCCC2 [CBK131872] | 158.706
43 | O=C(NCCn1ccnc1)C1CC(=O)N(c2cccc(F)c2)C1 (stereo not drawn) [CBK281582] | 140.897
44 | Cc1ccc(O)c(Nc2ncnc3ccc(Br)cc23)c1 [CBK269028C] | 115.897
45 | Cc1cc(C)c2c(n1)sc1c(N3CCC(C(=O)O)CC3)ncnc12 [CBK300512] | 181.562
46 | Cc1c(C(=O)N(C)C2CCNC2)nnn1-c1ccc2ncccc2c1 (stereo not drawn) [CBK304698] | 113.08
47 | O=C(O)c1nc2n(n1)C(C(F)(F)F)CC(c1cccs1)N2 (stereo not drawn) [CBK026415] | 115.473
48 | O=C(NCCc1cccs1)Nc1ccc(F)c(F)c1 [CBK043951] | 83.0372
49 | CN(CC(=O)O)S(=O)(=O)c1ccc2c(c1)OCCO2 [CBK263904] | 100
50 | Cc1ccc(CCC(=O)Nc2nc3c(cc2C#N)CCC3)o1 [CBK306366] | 89.814
51 | O=C(CN1CCOCC1)N/N=C/c1ccncc1 [CBK019949] | 135.53
